The text below walks through data of doi:10.1101/2024.03.08.584044.

Results are given in words; binding and its absence hold for the method and conditions named. Binding seen in cells or lysates may run through a third protein. A result given as binding can be weak or reduced; the word gives no strength. Sequences can lack the tags named with a protein.

This assay has as its target Exo70-Flag (expressed in HEK293T cells) (UniProt Q9UPT5). Briefly: co-IP.

B1: Snapin-GFP (protein, UniProt O95295 1-136)
chain: MAGAGSAAVSGAGTPVAGPTGRDLFAEGLLEFLRPAVQQLDSHVHAVRESQVELREQIDNLATELCRINEDQKVALDLDPYVKKLLNARRRVVLVNNILQNAQERLRRLNHSVAKETARRRAMLDSGIYPPGSPGK
Turning to B1, the binding entry is reported as “binds”.
